Source: article PMC12062237
These are yes or no findings as the source states them, for the method shown. In cells and extracts the contact can be indirect. Some entries that bind do so weakly or less than the wild type.

T1: Cdc16-TAP (S. cerevisiae (endogenous in yeast)) (UniProt P09798)
T1 sequence: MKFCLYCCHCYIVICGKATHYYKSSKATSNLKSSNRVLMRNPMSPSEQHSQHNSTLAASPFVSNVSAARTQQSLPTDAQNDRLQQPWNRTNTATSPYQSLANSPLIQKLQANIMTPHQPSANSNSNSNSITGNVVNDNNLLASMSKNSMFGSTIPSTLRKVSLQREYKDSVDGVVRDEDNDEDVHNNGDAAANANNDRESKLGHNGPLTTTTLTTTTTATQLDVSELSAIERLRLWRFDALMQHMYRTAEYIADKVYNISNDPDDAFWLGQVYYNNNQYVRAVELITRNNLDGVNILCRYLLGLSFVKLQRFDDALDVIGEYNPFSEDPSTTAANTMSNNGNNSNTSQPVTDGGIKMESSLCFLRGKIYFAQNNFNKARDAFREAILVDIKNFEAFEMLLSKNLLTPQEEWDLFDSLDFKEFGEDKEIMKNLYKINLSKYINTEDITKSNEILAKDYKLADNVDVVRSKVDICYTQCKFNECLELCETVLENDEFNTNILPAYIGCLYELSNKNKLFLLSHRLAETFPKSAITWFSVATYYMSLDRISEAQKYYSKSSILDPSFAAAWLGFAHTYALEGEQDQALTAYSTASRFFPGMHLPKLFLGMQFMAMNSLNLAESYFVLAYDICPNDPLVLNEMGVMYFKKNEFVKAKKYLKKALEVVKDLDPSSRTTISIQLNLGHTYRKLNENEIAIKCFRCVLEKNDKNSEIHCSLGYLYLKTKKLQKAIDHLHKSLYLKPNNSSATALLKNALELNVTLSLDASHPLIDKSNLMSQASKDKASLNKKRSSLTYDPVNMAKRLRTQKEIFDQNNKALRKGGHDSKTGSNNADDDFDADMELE


Molecular target: T1, Cdc16-TAP (S. cerevisiae (endogenous in yeast))
Experiment: co-IP; APC/C from lysate of a CDC16-TAP yeast strain on IgG-Dynabeads, washed with 500 mM NaCl buffer; subunits seen as 32P-labelled bands after a reaction with Clb2-Cdk1-Cks1 (SDS-PAGE, autoradiography), named by previous studies

Row | binding | Binder
1 | binds | Apc9 (protein, UniProt Q12107 1-265) MNQNGDKNEGKLFQLPSLPPWKTPRFNKANFNNFTTPLRKRSTRVINDDSMPITGEVLEERTADDLYGINMDVDEVDYLNTLSHIEEEKQYDYSPFCERNTLRESRIDSFLKAERAAHCLVFHKVGHLDGIDSYRPDIDIMCGEEANKYDSANPEGNGSMLLESVPGCNKEDLERLSRREFVTNSKPNMRRLDDIINHETNALKSFWNDSGLVNSLQSHHLHEEYLLLQEELKNVYKIKCHDRVPIESLRDKCRRHYSNEDSSFL
2 | binds | Cdc27 (protein, UniProt P38042 1-758) MAVNPELAPFTLSRGIPSFDDQALSTIIQLQDCIQQAIQQLNYSTAEFLAELLYAECSILDKSSVYWSDAVYLYALSLFLNKSYHTAFQISKEFKEYHLGIAYIFGRCALQLSQGVNEAILTLLSIINVFSSNSSNTRINMVLNSNLVHIPDLATLNCLLGNLYMKLDHSKEGAFYHSEALAINPYLWESYEAICKMRATVDLKRVFFDIAGKKSNSHNNNAASSFPSTSLSHFEPRSQPSLYSKTNKNGNNNINNNVNTLFQSSNSPPSTSASSFSSIQHFSRSQQQQANTSIRTCQNKNTQTPKNPAINSKTSSALPNNISMNLVSPSSKQPTISSLAKVYNRNKLLTTPPSKLLNNDRNHQNNNNNNNNNNNNNNNNNNNNNNNNIINKTTFKTPRNLYSSTGRLTTSKKNPRSLIISNSILTSDYSITLPEIMYNFALILRSSSQYNSFKAIRLFESQIPSHIKDTMPWCLVQLGKLHFEIINYDMSLKYFNRLKDLQPARVKDMEIFSTLLWHLHDKVKSSNLANGLMDTMPNKPETWCCIGNLLSLQKDHDAAIKAFEKATQLDPNFAYAYTLQGHEHSSNDSSDSAKTCYRKALACDPQHYNAYYGLGTSAMKLGQYEEALLYFEKARSINPVNVVLICCCGGSLEKLGYKEKALQYYELACHLQPTSSLSKYKMGQLLYSMTRYNVALQTFEELVKLVPDDATAHYLLGQTYRIVGRKKDAIKELTVAMNLDPKGNQVIIDELQKCHMQE
3 | binds | Cdc23 (protein, UniProt P16522 1-626) MNDDSQDKIIHDIRIQLRKAATELSRWKLYGSSKWAAEALAGLAEAIDVDQTHSLADESPLRNKQGVPKQMFEIPQNGFGLSETEYDLYLLGSTLFDAKEFDRCVFFLKDVTNPYLKFLKLYSKFLSWDKKSQESMENILTTGKFTDEMYRANKDGDGSGNEDINQSGHQRANLKMVSNEHESQSNISSILKEINTFLESYEIKIDDDEADLGLALLYYLRGVILKQEKNISKAMSSFLKSLSCYSFNWSCWLELMDCLQKVDDALLLNNYLYQNFQFKFSENLGSQRTIEFNIMIKFFKLKVFEELNGQLEDYFEDLEFLLQVFPNFTFLKAYNATISYNNLDYVTAESRFDDIVKQDPYRLNDLETYSNILYVMQKNSKLAYLAQFVSQIDRFRPETCCIIANYYSARQEHEKSIMYFRRALTLDKKTTNAWTLMGHEFVELSNSHAAIECYRRAVDICPRDFKAWFGLGQAYALLDMHLYSLYYFQKACTLKPWDRRIWQVLGECYSKTGNKVEAIKCYKRSIKASQTVDQNTSIYYRLAQLYEELEDLQECKKFMMKCVDVEELLEGIVTDETVKARLWLAIFEIKAGNYQLAYDYAMGVSSGTSQEIEEARMLARECRRHM
